Test system: wild type BY4741 cells vs sir2, hst1, hst2, hst3, hst4 deletion mutants
Assay: Whole genome DNA microarray transcriptional profiling
Format: cell-based, S. cerevisiae
Settings: 15 μM S1
Excerpt: In addition to SIR2, the S. cerevisiae genome encodes four SIR2 homologues: HST1-4 (Homologue of Sir Two) (Brachmann, C. B., et al. (1995) Genes Dev. 9, 2888-902). Hst2p is located in the cytoplasm and is responsible for virtually all the NAD^+-dependent deacetylase activity detected in a cellular lysate (Smith, J. S., et al., (2000) Proc. Natl. Acad. Sci. USA 97, 6658-63). Its relevant biological substrate is unknown. Hst1p is required for transcriptional repression of meiotic genes (Xie, J., et al. (1999) EMBO J. 18, 6448-54), whereas little is known about the cellular function of Hst3p or Hst4p.
Strains for the DNA array experiments for the whole genome analysis were obtained from Research Genetics (wild type BY4741: MATa his3, leu2, met15, […] or isogenic sir2, hst1, hst2, hst3 and hst4 deletion mutants). Several colonies from fresh cultures were inoculated into synthetic complete medium with 2% glucose, grown overnight at 30° C., diluted to 0.5−1×10^6 cell/ml and grown for an additional 6-9 hours until reaching a density of 0.5−1×10^7 cells/ml. […] Total RNA was extracted using the hot acid phenol method. […] Briefly, yeast microarrays were constructed employing a set of ˜6200 or specific PCR primer pairs (Research Genetics, Huntsville, Ala.), which were used to amplify each open reading frame (orf) of the yeast genome. […]

In the case of `O=C1CCc2c(ccc3ccccc23)O1` [S1, 1,2-dihydro-3H-naphtho[2,1-b]pyran-3-one], the “share of transcriptional changes mediated through HST1” value is reported as 9% and the “share of transcriptional changes mediated through SIR2” value is reported as 88%.

— patent publication US7514406B2, “Methods for inhibiting deacetylase activity” (Fred Hutchinson Cancer Research Center, priority 2001, dated 2009)
